No constants are given. Whether binding was seen depends on the method and setting.
B1: human MRS2 amino terminal domain, MRS2_(58–333) (domain or fragment, UniProt Q9HD23 58-333, looked up)
chain: DRLRVAGEVHRFRTSDVSQATLASVAPVFTVTKFDKQGNVTSFERKKTELYQELGLQARDLRFQHVMSITVRNNRIIMRMEYLKAVITPECLLILDYRNLNLEQWLFRELPSQLSGEGQLVTYPLPFEFRAIEALLQYWINTLQGKLSILQPLILETLDALVDPKHSSVDRSKLHILLQNGKSLSELETDIKIFKESILEILDEEELLEELCVSKWSDPQVFEKSSAGIDHAEEMELLLENYYRLADDLSNAARELRVLIDDSQSIIFINLDSHRN
notes: Cloned into pET-28a by NdeI and XhoI; also called MRS2 NTD; NTD; source: E. coli BL21 (DE3), purified (nickel-NTA, thrombin cleavage, SEC S200); not shown: His6, N-terminal, cleaved
B2: full-length human MRS2 excluding the mitochondrial targeting sequence, MRS2_(58–443) (natural protein, UniProt Q9HD23 58-443, looked up)
chain: DRLRVAGEVHRFRTSDVSQATLASVAPVFTVTKFDKQGNVTSFERKKTELYQELGLQARDLRFQHVMSITVRNNRIIMRMEYLKAVITPECLLILDYRNLNLEQWLFRELPSQLSGEGQLVTYPLPFEFRAIEALLQYWINTLQGKLSILQPLILETLDALVDPKHSSVDRSKLHILLQNGKSLSELETDIKIFKESILEILDEEELLEELCVSKWSDPQVFEKSSAGIDHAEEMELLLENYYRLADDLSNAARELRVLIDDSQSIIFINLDSHRNVMMRLNLQLTMGTFSLSLFGLMGVAFGMNLESSLEEDHRIFWLITGIMFMGSGLIWRRLLSFLGRQLEAPLPPMMASLPKKTLLADRSMELKNSLRLDGLGSGRSILTNR
notes: in CHAPS micelles in the assay; also called full-length MRS2; source: E. coli BL21 (DE3), purified as the NTD with 10 mM CHAPS in elution and SEC buffers; not shown: His6, N-terminal, cleaved

Columns and labels:
[1] = target: human MRS2 amino terminal domain, MRS2_(58–333) (human) (UniProt Q9HD23); assay: condition: only with 5 mM CaCl2, injected at 2.5 and 5.0 mg/ml; SEC-MALS; as a1 but 5 mM CaCl2 in running buffer and sample; injected at 2.5 and 5.0 mg/ml; both purified
[2] = target: human MRS2 amino terminal domain, MRS2_(58–333) (human) (UniProt Q9HD23); assay: dynamic light scattering; as a6 but with 5 mM MgCl2, 20 and 37°C; both purified
[3] = target: human MRS2 amino terminal domain, MRS2_(58–333) (human) (UniProt Q9HD23); assay: dynamic light scattering; as a6 but with 5 mM CaCl2, 20 and 37°C; both purified
[4] = target: human MRS2 amino terminal domain, MRS2_(58–333) (human) (UniProt Q9HD23); assay: condition: only with 5 mM MgCl2, injected at 2.5 mg/ml or less; SEC-MALS; as a1 but 5 mM MgCl2 in running buffer and sample; injected at 2.5 mg/ml or less; both purified
[5] = target: human MRS2 amino terminal domain, MRS2_(58–333) (human) (UniProt Q9HD23); assay: condition: only with 10 mM MgCl2, injected at 5 mg/ml; SEC-MALS; as a1 but 10 mM MgCl2 in running buffer and sample; injected at 5 mg/ml; both purified
[6] = target: full-length human MRS2 excluding the mitochondrial targeting sequence, MRS2_(58–443) (human) (UniProt Q9HD23); assay: dynamic light scattering; as a9 but with 5 mM CoCl2; both purified

Binder	binding [1]	binding [2]	binding [3]	binding [4]	binding [5]	binding [6]
B1	no binding	no binding (condition: with 5 mM MgCl2)	no binding (condition: with 5 mM CaCl2)	no binding	no binding	
B2						no binding (condition: with 5 mM CoCl2)
